Assay results as given in patent publication US20040019026A1, “Compounds useful for treating hypertriglyceridemia” (priority 2000, published 2004).
Several values for one entry are separate records, joined by “and”; a condition that tells them apart may be missing. Equal entries are not always repeated.

Key:
[1] = test system: Female CD-1 mice; experiment: Dexamethasone-induced thymic and splenic atrophy, anti-glucocorticoid effect (Example 4); assay type: in vivo; details: no DEX
Experimental: Female CD-1 mice were obtained from Charles River Laboratories, Kingston, N.Y. at 43-45 days of age. The mice were housed five per cage in plastic shoebox cages on corn cob bedding in the Fels Animal Facility at 72°±2° F. with 50%±5% humidity and twelve hours of alternate light and darkness. The mice had ad libitum access to Purina chain 5015 and acidified water for pretreatment.
Six days later, the mice were weighed, earmarked and redistributed into six groups for treatment: 1) a control group, 2) a group treated with dexamethasone (“DEX”), a glucocorticoid which induces thymic and splenic atrophy, 3) a group treated with 200 mg/kg 16α-fluoro-5-androsten-17-one (hereinafter “drug”), 4) a group treated with 400 mg/kg of, 5) a group treated with dexamethasone and 200 mg/kg drug and 6) a group treated with dexamethasone and 400 mg/kg drug. The treatment in the groups were as follows and were conducted simuitaneously.
The control group was intubated with 0.2 mL of sesame oil for three days. On the third day after commencement of the intubation, the mice were injected subcutaneously with 0.05 mL of absolute ethanol one hour after the last treatment with sesame oil.
The second group was intubated with 0.2 mL of sesame oil for three days. […]

[2] = test system: male BKS.Cg-m+/+Leprdb mice; experiment: Seminal vesicle weights, androgenic potency (Example 9); assay type: in vivo
From the text: Eight week old male BKS.Cg-m^+/+Lepr^db mice were obtained from Jackson Laboratories. These mice have a point mutation in the leptin receptor gene and produce a truncated receptor with impaired signaling capacity. These animals are severely insulin resistant and manifest an uncontrolled rise in blood sugar, severe depletion of the insulin-producing beta-cells of the pancreatic islets, and death by 10 months of age. The male animals also have very low plasma testosterone levels and as a consequence undeveloped seminal vesicle glands. Administration of androgens to these mice produces an increase in seminal vesicle weights similar to that seen in castrated males. Thus these animals can be used to assess androgenic potency of various compounds.
The mice were housed five per cage on Alphacel bedding with ad libitum access to Purina 5015 chow and acidified water. The mice were housed in the Central Animal Facility (6th floor, Pharmacy building) with twelve hours of alternating light and darkness.
A week later, the mice were treated subcutaneously (s.c.) with 0.05 mL fluasterone (16α-fluoro-5-androsten-17-one) suspended in an Emulphor-saline vehicle to give either a dose of 5 mg/kg s.c. or 20 mg/kg s.c. or intraperitoneally (i.p.) with 0.05 mL of fluasterone suspended in an Emulphor-saline vehicle to give a dose of 5 mg/kg. The Control mice received the Emulphor-saline vehicle s.c.
All the mice were anesthetized lightly with isoflurane before treatment with fluasterone to minimize the risk of stressing the mice while giving the s.c. dose. Their food was removed the afternoon before administration with drug and the chow was to the mice the next morning immediately after treatment. All the mice had their chow removed daily and restored just after fluasterone administration. During the week, the mice had access to chow for approximately 6½ hours, while on the weekends, the mice had approximately 4½ hours of access to chow. Mice were treated daily (weekdays and weekends).
Mice were treated daily with fluasterone, for about one month. Then the mice were sacrificed with an overdose of CO2. The seminal vesicles of each mouse were excised, cleaned of adventitia and the coagulating glands, and any liquid was pressed out and then the glands were weighed on a Mettler AE50 balance.

C[C@]12CCCCC1=CC[C@@H]1[C@@H]2CC[C@]2(C)C(=O)[C@H](F)C[C@@H]12 [fluasterone, 16α-fluoro-5-androsten-17-one]
Body Weight ([1]; 200 mg/kg drug intubated for three days): 23.7 ± 0.9 gm
Body Weight ([1]; 400 mg/kg drug intubated for three days): 24.7 ± 1.9 gm
Body Weight ([2]; 5 mg/kg, i.p. daily about one month, individual mice): 40.6 gm and 50.6 gm and 46.0 gm and 39.9 gm
Body Weight ([2]; 5 mg/kg, i.p., Average): 44.3 gm
Body Weight ([2]; 5 mg/kg, s.c. daily about one month, individual mice): 47.5 gm and 38.2 gm and 46.5 gm and 44.8 gm and 43.8 gm
Body Weight ([2]; 5 mg/kg, s.c., Average): 44.2 gm
Body Weight ([2]; 20 mg/kg, s.c. daily about one month, individual mice): 45.6 gm and 35.8 gm and 39.9 gm and 42.9 gm
Body Weight ([2]; 20 mg/kg, s.c., Average): 41.1 gm
